{"source": "paper PMC4424349", "target": "T1, PfMyoB-GFP (Plasmodium falciparum myosin B with C-terminal GFP) (Plasmodium falciparum 3D7) (UniProt Q8I465)", "T1 sequence": "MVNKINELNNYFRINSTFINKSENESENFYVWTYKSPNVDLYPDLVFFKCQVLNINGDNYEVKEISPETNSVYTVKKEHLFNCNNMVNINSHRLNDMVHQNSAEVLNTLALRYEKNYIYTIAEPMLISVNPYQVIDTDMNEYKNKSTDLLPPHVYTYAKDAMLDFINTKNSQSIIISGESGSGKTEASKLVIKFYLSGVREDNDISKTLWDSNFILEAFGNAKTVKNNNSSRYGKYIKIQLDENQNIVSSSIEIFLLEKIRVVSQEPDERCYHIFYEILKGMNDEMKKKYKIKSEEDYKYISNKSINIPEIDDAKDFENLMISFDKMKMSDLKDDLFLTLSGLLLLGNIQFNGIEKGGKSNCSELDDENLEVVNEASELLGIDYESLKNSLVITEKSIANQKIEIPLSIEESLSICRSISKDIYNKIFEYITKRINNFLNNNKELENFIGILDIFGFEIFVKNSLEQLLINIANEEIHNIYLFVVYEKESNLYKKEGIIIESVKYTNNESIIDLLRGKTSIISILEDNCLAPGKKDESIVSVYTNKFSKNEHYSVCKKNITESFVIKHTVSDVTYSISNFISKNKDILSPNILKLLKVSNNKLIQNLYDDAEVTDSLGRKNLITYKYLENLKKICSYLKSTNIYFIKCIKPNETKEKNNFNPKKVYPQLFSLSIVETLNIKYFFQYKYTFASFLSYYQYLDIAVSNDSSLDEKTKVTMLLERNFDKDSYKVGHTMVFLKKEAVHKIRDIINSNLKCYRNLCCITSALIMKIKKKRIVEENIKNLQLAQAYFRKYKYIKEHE", "test": "co-IP; GFP-Trap agarose beads on schizont lysates (0.5% Nonidet P-40, 150 mM NaCl, 10 mM Tris-HCl pH 7.5, diluted to 0.2% detergent), 2 h at 4 °C, washes with 150 mM and 300 mM NaCl; Western blot with anti-GFP, anti-GAP50, anti-GAP45, anti-MTIP; 3D7 lysate as control", "note": "Results are given in words; binding and its absence hold for the method and conditions named. Binding seen in cells or lysates may run through a third protein. Where a sequence is shown, tags or fusion partners need not be part of it."}
{"substance": "glideosome-associated protein 50 (GAP50)", "values": [{"measurement": "binding", "result": "no binding"}]}
